# Test results reported in PubChem BioAssay AID493014 (National Center for Advancing Translational Sciences (NCATS), 2011).
# The campaign covered roughly 340,000 compounds. About 170 (0.05%) were called active. Inconclusive results, whose numbers are uncertain, are shown with a selection of clear calls. The call rests on the fitted dose curve; in most records, active means well fitted inhibition curve with a large enough effect in the signal ratio, with a control signal flat (not every such curve was filed as active); inconclusive means small, poorly fitted or top-dose-only effect, or effect the other way, or a change in a side signal; inactive means flat fitted curve, though single readings scatter; the % refers to the signal ratio. Potencies of inconclusive entries are doubtful fits and often do not repeat.
# Assay: qHTS Assay to Find Inhibitors of Chronic Active B-Cell Receptor Signaling;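 on activity change, negative = inhibition: plate controls were basal doxycycline-induced cells for no effect and cells given 10 µM MG132 for full effect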
# Details: ABC-DLBCL IkBa-CBG/CBR reporter, luminescence ratio (green luciferase fused to IkBa over red control in TMD8 lymphoma cells), 4 h; activity change, negative = inhibition: at 46.1 µM (top of the series)
# How it was run: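 Compounds up to 46 uM were incubated four hours with TMD8 cells whose green CBG68 luciferase is fused to IkappaBalpha; red CBR luminescence normalised the signal, and concentration-effect curves were fitted to fusion, red and ratio data.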
# Potency means the concentration at half of the fitted maximal effect.
SMILES,"activity change, negative = inhibition",Potency
CCOC(=O)c1c(C)[nH]c(C(=O)Nc2ccc3c(c2)OCO3)c1C,inconclusive: -9.54%,
COc1nc(-c2ccccc2)ccc1-c1noc(-c2ccccc2F)n1,inactive: 5.49%,
O=C1CCCN1CCCNC(=S)Nc1ccc(F)c(Cl)c1,inconclusive: -6.39%,
Brc1ccc(NC2=Nc3ccccc3CC2)cc1,inconclusive: 6.81%,
COc1nnc(-c2ccc(N3CCOCC3)c(NC(C)=O)c2)c2ccccc12,,"inconclusive: 29.1 µM [falling, single point]"
Cc1ccc(CSCC(=O)N/N=C/c2sccc2C)cc1,inconclusive: -1.46%,
Cc1ccc2cc(CCNC(=O)c3ccc4c(c3)OCO4)c(=O)[nH]c2c1C,inconclusive: 1.53%,
Clc1ccc(OCCCCN2CCc3ccccc3C2)cc1,inconclusive: 1.56%,
Cc1ccc(C(=O)Nc2cccnc2)cc1S(=O)(=O)N1CCCCC1,inconclusive: 0.476%,
CCc1ccc(N2CC(C(=O)OCC(=O)Nc3ccc(C#N)cc3)CC2=O)cc1 (configuration not stated),inconclusive: 3.28%,
c1ccc(CNc2ncnc3sc4c(c23)CCCC4)nc1,inactive: -2.04%,
CC(NC(=O)c1cc(S(=O)(=O)N(C)C)ccc1Cl)C1CC2CCC1C2 (configuration not stated),inactive: -0.515%,
CCN(CC)CCCn1c2c(c(SCC(=O)Nc3cccc4ccccc34)nc1=O)CCC2,,"inconclusive: 20.6 µM [falling, single point]"
CCN(CC)S(=O)(=O)c1ccc(Cl)c(NC(=O)COC(=O)c2c(C)noc2C)c1,,"inconclusive: 18.4 µM [falling, partial curve]"
COC(=O)c1[nH]c2ccccc2c1NC(=O)CN1CCCCCC1,inactive: -0.454%,
CCCNC(=S)NCc1ccc(Cl)cc1,inconclusive: 0.896%,
COc1cc([N+](=O)[O-])ccc1-c1ccc(/C=N/NC(=O)c2ccccc2O)o1,,"inconclusive: 22.4 µM [falling, partial curve]"
COC(=O)C1=C(C)NC(=S)NC1c1ccc(-c2ccccc2C(=O)OC)o1 (configuration not stated),inactive: 3.53%,
Cc1ccc(S(=O)(=O)CCC(=O)OCC(=O)N2CCc3ccccc32)cc1,inconclusive: -3.88%,
O=C(CSc1nccc(=O)[nH]1)NCc1ccc2c(c1)OCO2,inactive: -0.556%,
CN1CCC(N(C)C(=O)c2ccc(Cl)c(S(=O)(=O)N3CCOCC3)c2)CC1,inactive: 10.5%,

SMILES,"activity change, negative = inhibition",Potency
CCOC(=O)N/N=C\c1ccc(OC(=O)c2ccco2)cc1,,"inconclusive: 28.2 µM [falling, partial curve, poor fit]"
CCn1c(=O)cc(OCC(=O)Nc2nc(C)cs2)c2ccccc21,inconclusive: 8.14%,
CCN(CC)CCCNC(=S)Nc1ccc(Br)cc1,inconclusive: 13.5%,
O=[N+]([O-])c1ccc(OCc2cn([C@@H](CO)c3ccccc3)nn2)c(Br)c1,inconclusive: -1.01%,
Cc1ccc(/C=C/C(=O)OCC(=O)Nc2cccnc2Cl)o1,inconclusive: -0.116%,
COc1ccccc1C(=O)NC(C)C(c1cccs1)N1CCOCC1 (configuration not stated),inconclusive: 13.5%,
COC(=O)c1c(NC(=O)CSc2nc(-c3ccco3)cc(C(F)(F)F)n2)sc2c1CCCC2,inconclusive: 6.84%,
Cc1ccc(NC(=O)C(=O)NNC(=O)c2cccs2)cc1,,"inconclusive: 17.8 µM [falling, partial curve]"
Cc1ccc2cc(C)c(N3CCN(c4ccccn4)CC3)nc2c1,inconclusive: 6.94%,
O=C(NCc1csc(-c2ccccc2)n1)c1ccco1,,"inconclusive: 20 µM [falling, partial curve, poor fit]"
CC1(C)CC(=O)C(C=NCCCN2CCOCC2)=C(O)C1,inactive: 4.05%,
Cc1ccc(S(=O)(=O)Nc2ccc(N(C)S(=O)(=O)c3ccc(C)cc3)cc2)cc1,inconclusive: -1.19%,
Cn1ccc(C(=O)Nc2sc3c(c2C#N)CCC3)n1,inactive: 1.89%,
CC1CCc2c(nc3ncnn3c2N2CC(C)OC(C)C2)C1 (configuration not stated),inconclusive: 5.64%,
N#CC1=C(N)C(C#N)(C#N)C(c2cccnc2)C2CCCC=C12 (configuration not stated),inactive: -0.572%,
COC(=O)c1ccc(C(=O)OC)c(NC(=O)COC(=O)C2CCCCC2)c1,inconclusive: 0.0926%,
Cc1cc(C)cc(NC(=O)Nc2ccccc2N2CCCCC2)c1,inactive: 0.496%,
CC(O)CNc1nc2c(c(=O)n(C)c(=O)n2C)n1C/C=C/c1ccccc1 (configuration not stated),inactive: -0.521%,
Cc1cccc(/C=N\NC(=O)c2sccc2-n2cccc2)c1,inconclusive: -3.69%,
CS(=O)(=O)N1CCN(c2ccc([N+](=O)[O-])c(NCc3ccc(Cl)cc3)c2)CC1,inactive: 0.751%,
O=C(NC(=S)Nc1ccc(Cl)c(C(=O)O)c1)c1ccco1,inconclusive: -14.1%,

# Four compounds from above, arranged by length of the SMILES, rising.
SMILES,"activity change, negative = inhibition",Potency
CCOC(=O)N/N=C\c1ccc(OC(=O)c2ccco2)cc1,,"inconclusive: 28.2 µM [falling, partial curve, poor fit]"
COc1ccccc1C(=O)NC(C)C(c1cccs1)N1CCOCC1 (configuration not stated),inconclusive: 13.5%,
Cc1ccc(S(=O)(=O)Nc2ccc(N(C)S(=O)(=O)c3ccc(C)cc3)cc2)cc1,inconclusive: -1.19%,
CS(=O)(=O)N1CCN(c2ccc([N+](=O)[O-])c(NCc3ccc(Cl)cc3)c2)CC1,inactive: 0.751%,
